Experimental data from PubChem BioAssay AID306 (DTP/NCI, 2004).
The list is a part of this screen's results and no random one: it gathers tests that were run many times, whatever their T/C, doses with no T/C, and many T/C values between a quarter and a half above the control. Other doses and runs of a compound stand elsewhere. T/C is the treated group as % of the vehicle group. Some doses have a count of surviving animals in place of a T/C: the source holds a T/C of zero for them, seemingly a mark for toxic or unscored doses. Some survivor counts are full or nearly so, which does not show that the dose was tolerated: survival well below the control is almost never listed, so the zero probably covers shortened survival too. Survivors were counted at the toxicity check, usually on the fifth day, unless a day is given; later deaths do not show. Schedule codes are those of the source, read here as Q, the interval in days (D) or hours (H), X, the number of doses. Some schedule codes hold Z or #, which are not explained here. Some doses were run more than once; their values stand side by side, smallest first. Where survival is the endpoint, this PubChem deposit counts one and a half times the control or more as active, and values a quarter to a half above the control carry no call in these data; other NCI protocols may use other cut-offs. Some T/C values carry the count of animals alive at the toxicity check (mostly the fifth day); where none is given, no animal had died by that day.

Test system: BDF1 mice, L1210 Methyl-GAG-resistant leukemia, survival T/C
Test: NCI In Vivo Anticancer Drug Screen. Data for tumor model L1210 Leukemia resistant to Methyl-GAG; NSC 32946 (subcutaneous) in B6D2F1 (BDF1) mice
Details: T/C endpoint: mean survival time, higher T/C = longer survival
Protocol: The antitumor activity of compounds was measured in mice bearing transplantable tumors. Survival or tumor size were measured and the results are expressed as the measurement made in the treated group (T) divided by the measurement made in the vehicle treated control group (C). The tumor model used in this assay is L1210 Leukemia resistant to Methyl-GAG; NSC 32946 (subcutaneous) in B6D2F1 (BDF1) mice

[1] = dose: 62.5 mg/kg/injection, schedule: Q01DX Z (sc), vehicle: steroid suspending solution
[2] = dose: 125.0 mg/kg/injection, schedule: Q01DX Z (sc), vehicle: steroid suspending solution
[3] = dose: 250.0 mg/kg/injection, schedule: Q01DX Z (sc), vehicle: steroid suspending solution
[4] = dose: 500.0 mg/kg/injection, schedule: Q01DX Z (sc), vehicle: steroid suspending solution
[5] = dose: 100.0 mg/kg/injection, schedule: Q01DX Z (ip), vehicle: carboxymethylcellulose (CMC)
[6] = dose: 200.0 mg/kg/injection, schedule: Q01DX Z (ip), vehicle: carboxymethylcellulose (CMC)
[7] = dose: 40.0 mg/kg/injection, schedule: Q01DX Z (ip), vehicle: carboxymethylcellulose (CMC)
[8] = dose: 62.5 mg/kg/injection, schedule: Q01DX Z (ip), vehicle: carboxymethylcellulose (CMC)
[9] = dose: 250.0 mg/kg/injection, schedule: Q01DX Z (ip), vehicle: carboxymethylcellulose (CMC)
[10] = dose: 500.0 mg/kg/injection, schedule: Q01DX Z (ip), vehicle: carboxymethylcellulose (CMC)
[11] = dose: 1000.0 mg/kg/injection, schedule: Q01DX Z (ip), vehicle: carboxymethylcellulose (CMC)
[12] = dose: 6.25 mg/kg/injection, schedule: Q01DX Z (ip), vehicle: saline
[13] = dose: 25.0 mg/kg/injection, schedule: Q01DX Z (ip), vehicle: carboxymethylcellulose (CMC)
[14] = dose: 50.0 mg/kg/injection, schedule: Q01DX Z (ip), vehicle: carboxymethylcellulose (CMC)
[15] = dose: 400.0 mg/kg/injection, schedule: Q01DX Z (ip), vehicle: carboxymethylcellulose (CMC)
[16] = dose: 2.5 mg/kg/injection, schedule: Q01DX Z (ip), vehicle: other

## CC[C@H](c1ccc(O)cc1)[C@@H](CC)c1ccc(O)cc1
[1]
  survivor count: 3 of 6
[2]
  survivor count: 0 of 6
[3]
  survivor count: 0 of 6
[4]
  survivor count: 0 of 6

## Nc1ncnc2[nH]ncc12
[5]
  survivor count: 5 of 6
[6]
  survivor count: 0 of 6

## CCCCCCCCCCCCNCCCCCCCCCCCC
dose: 60.0 mg/kg/injection, schedule: Q01DX Z (ip), vehicle: carboxymethylcellulose (CMC)
  survivor count: 5 of 6

## CC(CCC(C)OS(C)(=O)=O)OS(C)(=O)=O (centres undefined)
[7]
  survivor count: 4 of 6

## N#[N+]c1cnc([O-])[nH]c1=O
dose: 20.0 mg/kg/injection, schedule: Q01DX Z (ip), vehicle: carboxymethylcellulose (CMC)
  survivor count: 3 of 6
[7]
  survivor count: 0 of 6

## C[C@]12CCC(=O)C=C1CC[C@@H]1[C@@H]2C(=O)C[C@@]2(C)[C@H]1CC[C@]2(O)C(=O)CO
[2]
  T/C: 145 % of control
dose: 200.0 mg/kg/injection, schedule: Q01DX Z (sc), vehicle: steroid suspending solution
  T/C: 146 % of control
[3]
  T/C: 142 % of control
dose: 400.0 mg/kg/injection, schedule: Q01DX Z (sc), vehicle: steroid suspending solution
  T/C: 125 % of control
[4]
  T/C: 127 % of control

## CCn1cnc2c(=S)nc[nH]c21
[8]
  T/C: 145 % of control
dose: 125.0 mg/kg/injection, schedule: Q01DX Z (ip), vehicle: carboxymethylcellulose (CMC)
  T/C: 134 % of control
[9]
  survivor count: 6 of 6
[10]
  survivor count: 1 of 6
[11]
  survivor count: 0 of 6

## O=P1(N(CCCl)CCCl)NCCCO1 (centres undefined)
[12]
  T/C: 146 % of control

## Nc1nc(SCc2ccccc2)c2[nH]cnc2n1
[13]
  T/C: 129 % of control
[14]
  survivor count: 6 of 6

## Oc1cc(CN(CCCl)CCCl)c(O)cc1CN(CCCl)CCCl
dose: 15.0 mg/kg/injection, schedule: Q01DX Z (sc), vehicle: steroid suspending solution
  survivor count: 3 of 6

## CSc1ncnc2c1ncn2C1OC(CO)C(O)C1O (centres undefined)
[13]
  T/C: 125 % of control [5 of 6 alive]
[14]
  T/C: 128 % of control
[5]
  survivor count: 4 of 6
[6]
  survivor count: 5 of 6
[15]
  survivor count: 0 of 6

## O=c1[nH]c(=O)n(C2CC(O)C(CO)O2)cc1I (centres undefined)
[9]
  T/C: 135 % of control
[10]
  survivor count: 6 of 6
[11]
  survivor count: 6 of 6

## COS(C)(=O)=O
dose: 100.0 mg/kg/injection, schedule: Q01DX Z (ip), vehicle: water
  survivor count: 5 of 6
dose: 200.0 mg/kg/injection, schedule: Q01DX Z (ip), vehicle: water
  survivor count: 0 of 6

## Clc1ncnc2nc[nH]c12
[9]
  survivor count: 6 of 6

## O[C@H](CN1CC1)[C@@H](O)CN1CC1
dose: 0.25 mg/kg/injection, schedule: Q01DX Z (ip), vehicle: carboxymethylcellulose (CMC)
  T/C: 128 % of control
dose: 1.0 mg/kg/injection, schedule: Q01DX Z (ip), vehicle: carboxymethylcellulose (CMC)
  survivor count: 6 of 6
dose: 2.0 mg/kg/injection, schedule: Q01DX Z (ip), vehicle: carboxymethylcellulose (CMC)
  survivor count: 5 of 6
dose: 4.0 mg/kg/injection, schedule: Q01DX Z (ip), vehicle: carboxymethylcellulose (CMC)
  survivor count: 1 of 6
dose: 250.0 micrograms/kg/injection, schedule: Q01DX Z (ip), vehicle: carboxymethylcellulose (CMC)
  T/C: 142 % of control
dose: 500.0 micrograms/kg/injection, schedule: Q01DX Z (ip), vehicle: carboxymethylcellulose (CMC)
  T/C: 140 % of control

## C[C@]12C=CC(=O)C=C1CC[C@@H]1[C@@H]2[C@@H](O)C[C@@]2(C)[C@H]1CC[C@]2(O)C(=O)CO
[1]
  T/C: 143 % of control
[3]
  survivor count: 0 of 6
[4]
  survivor count: 6 of 6

## CN(Cc1cnc2nc(N)nc(N)c2n1)c1ccc(C(=O)N[C@@H](CCC(=O)O)C(=O)O)cc1
[16]
  T/C: 140 % of control
  survivor count: 6 of 6
dose: 5.0 mg/kg/injection, schedule: Q01DX Z (ip), vehicle: other
  survivor count: 6 of 6
dose: 7.0 mg/kg/injection, schedule: Q01DX Z (ip), vehicle: other
  survivor count: 6 of 6
dose: 10.0 mg/kg/injection, schedule: Q01DX Z (ip), vehicle: other
  survivor count: 6 of 6

## O=c1[nH]cc(F)c(=O)[nH]1
[12]
  T/C: 136 % of control
dose: 12.5 mg/kg/injection, schedule: Q01DX Z (ip), vehicle: saline
  T/C: 97 [5 of 6 alive], 108, 116, 184 % of control
dose: 25.0 mg/kg/injection, schedule: Q01DX Z (ip), vehicle: saline
  T/C: 125, 130, 153, 185 % of control
dose: 50.0 mg/kg/injection, schedule: Q01DX Z (ip), vehicle: saline
  T/C: 95 [5 of 6 alive], 101, 121, 198 % of control
dose: 100.0 mg/kg/injection, schedule: Q01DX Z (ip), vehicle: saline
  survivor count: 3 of 6 and 6 of 6
dose: 200.0 mg/kg/injection, schedule: Q01DX Z (ip), vehicle: saline
  survivor count: 6 of 6

## CC(=O)Nc1ccc2nc3ccc(NC(C)=O)cc3[n+](-c3ccccc3)c2c1
[15]
  T/C: 129 % of control
dose: 800.0 mg/kg/injection, schedule: Q01DX Z (ip), vehicle: carboxymethylcellulose (CMC)
  survivor count: 2 of 6

## CN(Cc1cnc2nc(N)nc(N)c2n1)c1c(Cl)cc(C(=O)NC(CCC(=O)O)C(=O)O)cc1Cl (centres undefined)
[13]
  T/C: 143 % of control
[5]
  survivor count: 5 of 6
[6]
  survivor count: 4 of 6
[15]
  survivor count: 3 of 6

## O=C(Nc1ccc(C2=NCCCN2)cc1)c1ccc(NC(=O)c2ccc(C3=NCCCN3)cc2)cc1
dose: 7.8 mg/kg/injection, schedule: Q01DX Z (ip), vehicle: carboxymethylcellulose (CMC)
  T/C: 132 and 144 % of control
dose: 31.3 mg/kg/injection, schedule: Q01DX Z (ip), vehicle: carboxymethylcellulose (CMC)
  survivor count: 5 of 6
[8]
  survivor count: 0 of 6
